Publication PMC9794804
No constants are given. Whether binding was seen depends on the method and setting. Binding seen in cells or lysates may run through a third protein. Some binding calls cover weakened binding; strength is not graded here.

Sequences of proteins named here, by UniProt entry; tags and fusion partners are left off.
UniProt P42227: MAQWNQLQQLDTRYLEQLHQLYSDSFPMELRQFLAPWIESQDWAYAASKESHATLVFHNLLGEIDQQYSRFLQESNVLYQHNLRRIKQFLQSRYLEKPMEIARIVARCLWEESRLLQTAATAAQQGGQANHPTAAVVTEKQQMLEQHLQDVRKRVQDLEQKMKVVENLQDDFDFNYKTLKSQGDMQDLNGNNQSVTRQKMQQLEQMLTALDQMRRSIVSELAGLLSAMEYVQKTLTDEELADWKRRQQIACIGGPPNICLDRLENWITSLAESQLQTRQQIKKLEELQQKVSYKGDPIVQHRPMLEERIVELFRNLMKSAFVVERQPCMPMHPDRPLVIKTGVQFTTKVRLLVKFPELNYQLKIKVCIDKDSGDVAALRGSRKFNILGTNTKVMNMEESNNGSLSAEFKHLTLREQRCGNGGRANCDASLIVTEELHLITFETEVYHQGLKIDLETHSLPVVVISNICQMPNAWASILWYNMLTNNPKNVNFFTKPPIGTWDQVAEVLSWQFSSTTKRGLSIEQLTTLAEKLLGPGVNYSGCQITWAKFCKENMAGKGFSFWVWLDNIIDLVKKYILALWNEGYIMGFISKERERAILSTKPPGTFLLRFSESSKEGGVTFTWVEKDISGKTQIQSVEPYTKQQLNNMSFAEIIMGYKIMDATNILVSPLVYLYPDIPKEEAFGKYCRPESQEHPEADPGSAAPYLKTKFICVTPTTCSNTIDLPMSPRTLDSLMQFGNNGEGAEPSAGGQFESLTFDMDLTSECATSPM

Tests used:
[1] = target: T1, βPIX (mouse (endogenous in RAW 264.7)) (UniProt Q9ES28); test: co-IP; anti-βPIX antibody IP from lysates of RAW 264.7 cells treated with rmCIRP (1 µg/ml, 24 h), with or without stattic (3 µM); protein A/G magnetic beads; Western blot for STAT3; lysis buffer 10 mM Tris-HCl pH 7.5, 100 mM NaCl, 1 mM EDTA, 1 mM EGTA, 1% Triton X-100
T1 sequence: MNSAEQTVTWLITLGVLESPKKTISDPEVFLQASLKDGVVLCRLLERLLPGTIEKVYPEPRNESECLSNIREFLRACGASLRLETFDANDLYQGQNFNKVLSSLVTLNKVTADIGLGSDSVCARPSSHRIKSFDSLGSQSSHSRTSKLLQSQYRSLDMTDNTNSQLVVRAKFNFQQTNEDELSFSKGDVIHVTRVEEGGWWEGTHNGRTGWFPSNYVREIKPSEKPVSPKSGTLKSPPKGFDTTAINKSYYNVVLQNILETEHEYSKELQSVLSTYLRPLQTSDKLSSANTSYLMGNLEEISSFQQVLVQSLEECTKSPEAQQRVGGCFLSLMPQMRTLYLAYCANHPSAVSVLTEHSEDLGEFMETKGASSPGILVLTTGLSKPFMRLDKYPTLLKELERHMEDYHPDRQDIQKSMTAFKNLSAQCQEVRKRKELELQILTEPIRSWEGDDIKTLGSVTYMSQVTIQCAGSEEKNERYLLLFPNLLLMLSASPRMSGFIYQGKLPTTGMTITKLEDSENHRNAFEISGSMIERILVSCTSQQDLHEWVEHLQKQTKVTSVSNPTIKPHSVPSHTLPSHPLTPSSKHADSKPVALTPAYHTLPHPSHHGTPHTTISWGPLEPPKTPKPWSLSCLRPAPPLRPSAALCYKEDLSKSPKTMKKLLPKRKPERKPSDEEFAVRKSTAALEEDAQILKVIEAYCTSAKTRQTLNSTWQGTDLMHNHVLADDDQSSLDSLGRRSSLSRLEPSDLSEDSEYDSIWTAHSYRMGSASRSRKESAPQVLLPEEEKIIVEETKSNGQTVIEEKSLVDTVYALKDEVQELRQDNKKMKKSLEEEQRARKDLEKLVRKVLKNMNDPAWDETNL

[2] = target: T1, βPIX (mouse (endogenous in RAW 264.7)); test: co-IP; anti-βPIX antibody IP from lysates of PBS-treated (no rmCIRP) RAW 264.7 cells; protein A/G magnetic beads; Western blot for STAT3; lysis buffer 10 mM Tris-HCl pH 7.5, 100 mM NaCl, 1 mM EDTA, 1 mM EGTA, 1% Triton X-100

binding [1]: binds
Substance: STAT3 (from UniProt P42227 1-770)
binding [2]: no binding (condition: PBS-treated cells (without rmCIRP))
